Data from publication doi:10.1101/2022.11.04.515170.
These are yes or no findings as the source states them, for the method shown. Binding seen in cells or lysates may run through a third protein. A yes stands for co-enrichment or nearness to the bait. Other partners may have been found. Tags and fused reporters may be left off the sequences shown.

Chains of the proteins cited; added tags and fusions are not shown. Residues count along the entry.
UniProt P11717, residues 41-2491: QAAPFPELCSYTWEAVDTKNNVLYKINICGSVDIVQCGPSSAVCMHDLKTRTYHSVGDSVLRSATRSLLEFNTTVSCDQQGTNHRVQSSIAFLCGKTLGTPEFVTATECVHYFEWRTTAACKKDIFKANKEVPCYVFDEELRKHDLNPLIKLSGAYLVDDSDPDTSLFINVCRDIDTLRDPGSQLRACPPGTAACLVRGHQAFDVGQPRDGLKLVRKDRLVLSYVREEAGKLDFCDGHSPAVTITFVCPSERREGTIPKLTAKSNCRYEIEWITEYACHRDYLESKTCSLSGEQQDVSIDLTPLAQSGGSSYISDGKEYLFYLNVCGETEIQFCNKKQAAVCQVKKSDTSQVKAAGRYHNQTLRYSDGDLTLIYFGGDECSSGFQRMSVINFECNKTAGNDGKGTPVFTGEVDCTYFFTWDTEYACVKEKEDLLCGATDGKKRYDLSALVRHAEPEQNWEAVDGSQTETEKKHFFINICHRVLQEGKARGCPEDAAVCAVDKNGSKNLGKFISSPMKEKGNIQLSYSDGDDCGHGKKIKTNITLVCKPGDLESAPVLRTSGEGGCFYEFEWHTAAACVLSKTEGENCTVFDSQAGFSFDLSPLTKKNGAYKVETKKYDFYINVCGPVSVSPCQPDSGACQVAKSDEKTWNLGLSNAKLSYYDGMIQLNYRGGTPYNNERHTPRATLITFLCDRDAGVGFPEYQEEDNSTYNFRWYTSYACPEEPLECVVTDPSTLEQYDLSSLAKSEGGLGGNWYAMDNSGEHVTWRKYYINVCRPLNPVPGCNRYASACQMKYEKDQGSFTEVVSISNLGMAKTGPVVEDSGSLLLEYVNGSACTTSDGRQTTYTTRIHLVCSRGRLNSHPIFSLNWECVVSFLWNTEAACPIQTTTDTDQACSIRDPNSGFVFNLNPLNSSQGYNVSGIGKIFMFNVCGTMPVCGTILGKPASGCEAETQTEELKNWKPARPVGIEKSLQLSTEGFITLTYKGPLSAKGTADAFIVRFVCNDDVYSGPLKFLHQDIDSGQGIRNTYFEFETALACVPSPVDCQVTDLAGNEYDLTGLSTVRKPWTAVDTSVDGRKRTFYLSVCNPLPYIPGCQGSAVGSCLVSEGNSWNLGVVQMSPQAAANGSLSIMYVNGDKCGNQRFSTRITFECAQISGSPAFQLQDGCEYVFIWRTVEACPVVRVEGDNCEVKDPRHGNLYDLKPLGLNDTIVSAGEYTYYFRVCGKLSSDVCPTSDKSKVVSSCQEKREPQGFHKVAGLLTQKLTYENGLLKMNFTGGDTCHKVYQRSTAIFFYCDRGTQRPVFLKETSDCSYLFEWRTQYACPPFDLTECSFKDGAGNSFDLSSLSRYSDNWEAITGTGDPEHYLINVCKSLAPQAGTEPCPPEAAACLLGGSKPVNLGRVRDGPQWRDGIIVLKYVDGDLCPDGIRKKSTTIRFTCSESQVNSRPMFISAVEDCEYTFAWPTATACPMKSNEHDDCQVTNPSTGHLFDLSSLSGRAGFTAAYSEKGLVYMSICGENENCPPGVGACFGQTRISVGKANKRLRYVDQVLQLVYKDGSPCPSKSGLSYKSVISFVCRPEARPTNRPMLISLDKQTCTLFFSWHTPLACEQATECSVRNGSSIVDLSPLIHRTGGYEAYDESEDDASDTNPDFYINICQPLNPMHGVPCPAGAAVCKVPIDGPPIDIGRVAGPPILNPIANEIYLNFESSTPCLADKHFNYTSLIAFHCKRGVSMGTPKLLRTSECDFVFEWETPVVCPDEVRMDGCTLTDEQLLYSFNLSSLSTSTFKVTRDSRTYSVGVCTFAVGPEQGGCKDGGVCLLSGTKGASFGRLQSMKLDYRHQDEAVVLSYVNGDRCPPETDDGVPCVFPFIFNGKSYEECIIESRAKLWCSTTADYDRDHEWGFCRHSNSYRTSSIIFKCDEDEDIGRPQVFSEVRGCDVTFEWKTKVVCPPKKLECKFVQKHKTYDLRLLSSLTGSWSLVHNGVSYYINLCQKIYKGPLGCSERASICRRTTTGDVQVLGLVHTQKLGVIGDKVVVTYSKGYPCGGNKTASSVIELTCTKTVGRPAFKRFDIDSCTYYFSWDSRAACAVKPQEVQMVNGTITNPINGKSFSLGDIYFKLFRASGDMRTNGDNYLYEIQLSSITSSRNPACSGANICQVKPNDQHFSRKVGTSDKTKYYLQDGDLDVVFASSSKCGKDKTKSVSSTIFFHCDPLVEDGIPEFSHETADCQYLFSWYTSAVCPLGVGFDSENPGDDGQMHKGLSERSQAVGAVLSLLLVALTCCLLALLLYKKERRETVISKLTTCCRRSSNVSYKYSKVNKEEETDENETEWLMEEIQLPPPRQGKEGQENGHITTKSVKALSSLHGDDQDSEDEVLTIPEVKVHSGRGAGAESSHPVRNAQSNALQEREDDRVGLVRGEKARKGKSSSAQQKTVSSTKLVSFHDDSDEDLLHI
UniProt P33176: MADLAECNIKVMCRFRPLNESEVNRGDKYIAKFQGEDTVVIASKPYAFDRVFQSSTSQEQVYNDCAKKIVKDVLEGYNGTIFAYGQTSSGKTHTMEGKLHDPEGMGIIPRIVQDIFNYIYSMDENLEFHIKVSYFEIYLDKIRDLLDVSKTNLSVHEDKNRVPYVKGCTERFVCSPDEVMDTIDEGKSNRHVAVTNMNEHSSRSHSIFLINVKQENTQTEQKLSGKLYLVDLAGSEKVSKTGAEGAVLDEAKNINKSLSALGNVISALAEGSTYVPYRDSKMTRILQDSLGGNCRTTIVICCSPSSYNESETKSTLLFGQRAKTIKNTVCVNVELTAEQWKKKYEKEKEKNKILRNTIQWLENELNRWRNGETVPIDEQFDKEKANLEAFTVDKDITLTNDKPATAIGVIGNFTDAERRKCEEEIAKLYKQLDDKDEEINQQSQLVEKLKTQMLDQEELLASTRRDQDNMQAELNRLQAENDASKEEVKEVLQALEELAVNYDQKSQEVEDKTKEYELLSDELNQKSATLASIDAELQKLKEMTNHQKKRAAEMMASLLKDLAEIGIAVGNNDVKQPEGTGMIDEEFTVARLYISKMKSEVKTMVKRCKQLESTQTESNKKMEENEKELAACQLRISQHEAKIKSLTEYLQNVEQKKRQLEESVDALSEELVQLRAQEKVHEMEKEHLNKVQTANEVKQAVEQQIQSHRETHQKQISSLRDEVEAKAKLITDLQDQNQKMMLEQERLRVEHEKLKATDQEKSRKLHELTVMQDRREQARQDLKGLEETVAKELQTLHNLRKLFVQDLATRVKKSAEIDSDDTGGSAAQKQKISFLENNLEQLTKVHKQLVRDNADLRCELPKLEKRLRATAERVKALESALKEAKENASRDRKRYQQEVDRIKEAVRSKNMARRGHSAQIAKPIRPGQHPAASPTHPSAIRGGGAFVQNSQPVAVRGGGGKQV

The substances below were run against T1, GFP-SNX32 WT (UniProt Q86XE0) (assay: affinity purification with mass spectrometry).
T1 sequence: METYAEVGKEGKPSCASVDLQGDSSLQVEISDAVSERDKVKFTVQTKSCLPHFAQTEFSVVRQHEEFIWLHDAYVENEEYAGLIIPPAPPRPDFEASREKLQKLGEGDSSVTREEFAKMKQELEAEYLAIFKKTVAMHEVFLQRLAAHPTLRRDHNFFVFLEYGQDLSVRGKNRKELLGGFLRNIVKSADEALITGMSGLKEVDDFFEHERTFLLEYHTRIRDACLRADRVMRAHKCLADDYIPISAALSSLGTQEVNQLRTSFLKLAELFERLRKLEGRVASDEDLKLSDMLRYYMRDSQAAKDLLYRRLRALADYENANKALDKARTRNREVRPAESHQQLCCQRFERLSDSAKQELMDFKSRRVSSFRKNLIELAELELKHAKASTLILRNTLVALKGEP

binding | Substance
binds | Basigin (from UniProt P35613-2) (receptor)
binds | Cation Independent Mannose-6-Phosphate Receptor (from UniProt P11717 41-2491)
binds | kinesin-1 heavy chain (from UniProt P33176 1-963)
